From paper PMC5747488
These are yes or no findings as the source states them, for the method shown. In cells and extracts the contact can be indirect.

Assays:
[1] = target: T1, TNF receptor associated factor 2 (TRAF2), endogenous in human cells (human (endogenous in HEK 293T, Saos-2)) (UniProt Q12933); experiment: co-IP; HEK 293T cells transfected with pORFV119^Flag, pORFV119^LxGxE-Flag or pORFV113^Flag, harvested 12 h post transfection; reciprocal IP of total protein extracts (anti-Flag, anti-pRb or anti-TRAF2), high stringency buffer with 300 mM NaCl, overnight at 4°C, protein G agarose; Western blot
T1 sequence: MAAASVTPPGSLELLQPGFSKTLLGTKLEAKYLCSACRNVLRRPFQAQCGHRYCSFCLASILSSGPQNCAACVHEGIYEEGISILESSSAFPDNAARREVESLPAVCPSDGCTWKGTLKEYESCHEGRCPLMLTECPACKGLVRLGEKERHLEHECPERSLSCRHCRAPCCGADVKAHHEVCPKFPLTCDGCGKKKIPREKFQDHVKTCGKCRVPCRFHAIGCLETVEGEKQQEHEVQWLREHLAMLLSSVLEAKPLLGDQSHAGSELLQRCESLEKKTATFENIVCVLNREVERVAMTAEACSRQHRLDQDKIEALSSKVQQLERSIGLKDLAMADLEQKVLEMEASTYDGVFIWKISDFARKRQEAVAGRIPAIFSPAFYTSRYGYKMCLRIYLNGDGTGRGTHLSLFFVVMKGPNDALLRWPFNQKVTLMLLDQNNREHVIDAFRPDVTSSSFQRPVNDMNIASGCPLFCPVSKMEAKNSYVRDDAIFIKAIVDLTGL

[2] = target: T2, TNF receptor associated factor 2 (TRAF2), endogenous in ovine OFTu cells (ovine (endogenous in OFTu)); experiment: co-IP; OFTu cells infected with Flag-tagged recombinant ORFV (MOI 10), harvested 12 h p.i.; reciprocal IP of total protein extracts (anti-Flag or antibody against the cellular protein), high stringency buffer with 300 mM NaCl, overnight at 4°C, protein G agarose; Western blot
T2 sequence: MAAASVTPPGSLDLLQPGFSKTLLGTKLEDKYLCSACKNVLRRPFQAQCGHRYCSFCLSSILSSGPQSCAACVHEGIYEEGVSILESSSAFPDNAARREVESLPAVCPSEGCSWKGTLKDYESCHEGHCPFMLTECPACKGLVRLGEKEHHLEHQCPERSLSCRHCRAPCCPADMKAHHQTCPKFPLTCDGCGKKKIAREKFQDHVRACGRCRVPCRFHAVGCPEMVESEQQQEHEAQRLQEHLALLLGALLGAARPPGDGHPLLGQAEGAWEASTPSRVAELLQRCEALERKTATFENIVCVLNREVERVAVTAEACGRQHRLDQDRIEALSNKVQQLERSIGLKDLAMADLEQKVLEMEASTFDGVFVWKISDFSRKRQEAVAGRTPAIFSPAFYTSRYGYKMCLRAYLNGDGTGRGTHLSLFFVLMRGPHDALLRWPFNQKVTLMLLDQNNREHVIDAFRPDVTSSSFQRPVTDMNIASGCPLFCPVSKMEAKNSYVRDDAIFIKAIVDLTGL

Substance | binding [1] | binding [2]
ORFV113^Flag expressed from plasmid pORFV113^Flag | no binding | 
ORFV113^Flag expressed by virus OV-IA82-RV113^Flag |  | no binding
